Measurements: PubChem BioAssay AID493014 (National Center for Advancing Translational Sciences (NCATS), 2011)
The other results are listed elsewhere or left out. Shown are side measurements of this screen, not its main read-out; they come without a call. Most of these compounds were active or inconclusive in the main read-out, so they are no random draw. Words in brackets tell the shape of the fitted curve; partial curves, single points and poor fits give uncertain potencies.

Assay: qHTS Assay to Find Inhibitors of Chronic Active B-Cell Receptor Signaling
Settings: ABC-DLBCL IkBa-CBG/CBR reporter, luminescence ratio (green luciferase fused to IkBa over red control in TMD8 lymphoma cells), 4 h
In short: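 Doxycycline induced both beetle luciferases in TMD8 lymphoma cells; IKK-driven degradation limits the IkappaBalpha-fused green signal, while red luminescence normalises for cell number and nonspecific effects. Compounds tested up to 46 uM, 4 hrs.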

[1] = measured here: CBR red luminescence, cell number
[2] = measured here: IkBa-CBG green luminescence

Row | Compound | AC50 [1] | AC50 [2]
1 | O=C1CSc2ccc(S(=O)(=O)NCc3ccc(Cl)cc3)cc2N1 | 10 µM [falling, single point] | 
2 | N#C/C(=C(/O)COC(=O)c1ccc(O)cc1)c1nc2ccccc2[nH]1 | 17.8 µM [falling, partial curve, poor fit] | 
3 | CN(C)S(=O)(=O)c1ccc(-c2csc(N/N=C/c3ccco3)n2)cc1 | 11.2 µM [falling, partial curve, poor fit] | 
4 | Cc1noc(C)c1COC(=O)c1cccc(N(C)C)c1 | 25.1 µM [rising, single point] | 11.2 µM [falling, partial curve, poor fit]
5 | CS(=O)(=O)Nc1ccccc1C(=O)NCCSc1ccccc1 | 4.47 µM [rising, partial curve, poor fit] | 
6 | Brc1cccc(CNc2nc3ccccc3n2CCN2CCCCC2)c1 | 7.08 µM [falling, partial curve, poor fit] | 
7 | NNC(=S)NC1CCCCC1 |  | 35.5 µM [falling, single point]
8 | O=C(Nc1cccc(-c2nc3ccccc3[nH]2)c1)c1ccccn1 | 7.94 µM [falling, partial curve] | 
9 | CNc1nc(Cl)c(SC)c(NCc2ccc(F)cc2)n1 | 5.62 µM [rising, full curve, poor fit] | 
10 | CC1(C)CC(=O)C(N=Nc2cc(S(=O)(=O)N3CCOCC3)ccc2Cl)=C(O)C1 | 0.794 µM [rising, full curve, poor fit] | 
11 | O=C(O)c1cc2c(cn1)[nH]c1ccccc12 | 35.5 µM [falling, single point] | 
12 | CC1=NN(Cc2ccccc2)C(=O)/C1=C\c1ccc(N(C)C)cc1 | 20.6 µM [rising, partial curve] | 23.1 µM [falling, partial curve, poor fit]
13 | CCc1ccc2nc(NC(=O)Cn3cnc4ccccc4c3=O)sc2c1 | 1.12 µM [rising, partial curve, poor fit] | 
14 | COC(c1ccccc1)c1nnc(CCC(=O)N(C)CCOc2ccccc2)o1 (stereo not given) | 8.91 µM [rising, partial curve, poor fit] | 
15 | Cc1cccc(-c2noc(CCCC(=O)Nc3ccc(C(N)=O)cc3)n2)c1 | 29.1 µM [rising, single point] | 0.411 µM [rising, full curve, poor fit]
16 | O=C(NCCCn1ccnc1)c1cc(-c2ccc(Br)cc2)on1 | 35.5 µM [falling, partial curve, poor fit] | 
17 | Cc1ccc(C(=O)NCc2ccccn2)o1 | 0.082 µM [rising, full curve, poor fit] | 

Record cards, from the list above:
`NNC(=S)NC1CCCCC1` reads AC50 [2]: 35.5 µM [falling, single point]
`Brc1cccc(CNc2nc3ccccc3n2CCN2CCCCC2)c1` reads AC50 [1]: 7.08 µM [falling, partial curve, poor fit]
